Source: patent US6900351B2, “Aminopolycarboxylates, process for producing the same and use thereof” (Tosoh Corporation, priority 2000, dated 2005)

System: activated sludge
Experiment: Biodegradability test with activated sludge (modified MITI method, OECD Test Guideline 301C)

O=C([O-])CN(CCN(CC(=O)[O-])CC(=O)[O-])CC(=O)[O-].[Na+].[Na+].[Na+].[Na+] [tetrasodium ethylenediaminetetraacetate]
degradation in biodegradability test (in words) (as in Example 1: sample 30 mg/l, activated sludge 100 mg/l, 25° C., 2 weeks): scarcely degraded | degradation in biodegradability test (in words) (modified MITI method OECD 301C): scarcely degraded
